Reference: the supplement of paper PMC4299490
± gives the standard deviation of the averaged measurements. Single values of this set are uncertain.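 Each ligand was tested at three doses, and effects were judged against wells given only the basal cytokines. TGFB1 at 10 ng/ml served as a negative control and SR1 as a positive control for HSC expansion.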

How the values were obtained:
[1] = tested on: human umbilical cord blood Lin-RholowCD34+CD38-CD45RA-CD49f+ HSC-enriched cells; experiment: number of CD34+CD133+CD90+ HSC-enriched cells per well on day 7 (from 40 seeded cells); higher = more HSC-enriched cell output; conditions: culture time: 7 days, basal cytokines: 100 ng/ml SCF + 50 ng/ml THPO + 100 ng/ml FLT3LG
Method: (§1)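 Forty human umbilical cord blood Lin-RholowCD34+CD38-CD45RA-CD49f+ HSC-enriched cells were cultured per well in serum-free medium with basal cytokines (100 ng/ml SCF, 50 ng/ml THPO, 100 ng/ml FLT3LG) plus one test ligand (recombinant protein or small-molecule inhibitor) at the stated concentration. On day 7, flow cytometry counted CD34+CD133+CD90+ HSC-enriched cells and CD34- mature cells; progenitors (CD34+ cells that are CD133- or CD90-) were calculated as total - HSC-enriched - mature. Values are absolute cell numbers per well, corrected for the 30 µl dead volume and averaged over experiments; they are not normalised to the basal-cytokine control, and they vary strongly between experiments. Concentrations are in ng/ml, except SR1, which is 0.75 µM.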

[2] = tested on: human umbilical cord blood Lin-RholowCD34+CD38-CD45RA-CD49f+ HSC-enriched cells; experiment: number of CD34- mature cells per well on day 7 (from 40 seeded cells); higher = more mature cell output; conditions: culture time: 7 days, basal cytokines: 100 ng/ml SCF + 50 ng/ml THPO + 100 ng/ml FLT3LG
Method: as §1

[3] = ligand concentration (ng/ml; SR1 in µM as written): 1
[4] = ligand concentration (ng/ml; SR1 in µM as written): 10
[5] = ligand concentration (ng/ml; SR1 in µM as written): 100
[6] = ligand concentration (ng/ml; SR1 in µM as written): 50
[7] = ligand concentration (ng/ml; SR1 in µM as written): 200
[8] = ligand concentration (ng/ml; SR1 in µM as written): 0.1
[9] = ligand concentration (ng/ml; SR1 in µM as written): 5
[10] = ligand concentration (ng/ml; SR1 in µM as written): 300
[11] = ligand concentration (ng/ml; SR1 in µM as written): 150
[12] = ligand concentration (ng/ml; SR1 in µM as written): 25

| Sequence | number [1, 3] | number [1, 5] | number [2, 3] | number [2, 5] | number [1, 6] | number [2, 6] | further results |
| --- | --- | --- | --- | --- | --- | --- | --- |
| MPLLWLRGFLLASCWIIVRSSPTPGSEGHSAAPDCPSCALAALPKDVPNSQPEMVEAVKKHILNMLHLKKRPDVTQPVPKAALLNAIRKLHVGKVGENGYVEIEDDIGRRAEMNELMEQTSEIITFAESGTARKTLHFEISKEGSDLSVVERAEVWLFLKVPKANRTRTKVTIRLFQQQKHPQGSLDTGEEAEEVGLKGERSELLLSEKVVDARKSTWHVFPVSSSIQRLLDQGKSSLDVRIACEQCQESGASLVLLGKKKKKEEEGEGKKKGGGEGGAGADEEKEQSHRPFLMLQARQSEDHPHRRRRRGLECDGKVNICCKKQFFVSFKDIGWNDWIIAPSGYHANYCEGECPSHIAGTSGSSLSFHSTVINHYRMRGHSPFANLKSCCVPTKLRPMSMLYYDDGQNIIKKDIQNMIVEECGCS | 97.6 ± 73 | 72.5 ± 38 | 300 ± 250 | 325 ± 170 | – | – | number [1, 4]: 65 ± 33; number [2, 4]: 449 ± 140 |
| MQHRGFLLLTLLALLALTSAVAKKKDKVKKGGPGSECAEWAWGPCTPSSKDCGVGFREGTCGAQTQRIRCRVPCNWKKEFGADCKYKFENWGACDGGTGTKVRQGTLKKARYNAQCQETIRVTKPCTPKTKAKAKAKKGKGKD | 152 ± 100 | – | 272 ± 140 | – | 138 ± 77 | 751 ± 720 | number [1, 7]: 136 ± 80; number [2, 7]: 332 ± 240 |
| MSERKEGRGKGKGKKKERGSGKKPESAAGSQSPALPPRLKEMKSQESAAGSKLVLRCETSSEYSSLRFKWFKNGNELNRKNKPQNIKIQKKPGKSELRINKASLADSGEYMCKVISKLGNDSASANITIVESNEIITGMPASTEGAYVSSESPIRISVSTEGANTSSSTSTSTTGTSHLVKCAEKEKTFCVNGGECFMVKDLSNPSRYLCKCQPGFTGARCTENVPMKVQNQEKAEELYQKRVLTITGICIALLVVGIMCVVAYCKTKKQRKKLHDRLRQSLRSERNNMMNIANGPHHPNPPPENVQLVNQYVSKNVISSEHIVEREAETSFSTSHYTSTAHHSTTVTQTPSHSWSNGHTESILSESHSVIVMSSVENSRHSSPTGGPRGRLNGTGGPRECNSFLRHARETPDSYRDSPHSERYVSAMTTPARMSPVDFHTPSSPKSPPSEMSPPVSSMTVSMPSMAVSPFMEEERPLLLVTPPRLREKKFDHHPQQFSSFHHNPAHDSNSLPASPLRIVEDEEYETTQEYEPAQEPVKKLANSRRAKRTKPNGHIANRLEVDSNTSSQSSNSESETEDERVGEDTPFLGIQNPLAASLEATPAFRLADSRTNPAGRFSTQEEIQARLSSVIANQDPIAV | – | 138 ± 78 | – | 226 ± 56 | – | – | number [1, 8]: 146 ± 59; number [1, 9]: 144 ± 53; number [2, 8]: 282 ± 210; number [2, 9]: 267 ± 180 |
| MSPRSCLRSLRLLVFAVFSAAASNWLYLAKLSSVGSISEEETCEKLKGLIQRQVQMCKRNLEVMDSVRRGAQLAIEECQYQFRNRRWNCSTLDSLPVFGKVVTQGTREAAFVYAISSAGVAFAVTRACSSGELEKCGCDRTVHGVSPQGFQWSGCSDNIAYGVAFSQSFVDVRERSKGASSSRALMNLHNNEAGRKAILTHMRVECKCHGVSGSCEVKTCWRAVPPFRQVGHALKEKFDGATEVEPRRVGSSRALVPRNAQFKPHTDEDLVYLEPSPDFCEQDMRSGVLGTRGRTCNKTSKAIDGCELLCCGRGFHTAQVELAERCSCKFHWCCFVKCRQCQRLVELHTCR | – | 186 ± 57 | – | 829 ± 470 | – | – | number [1, 9]: 151 ± 30; number [1, 10]: 168 ± 81; number [2, 9]: 911 ± 580; number [2, 10]: 1010 ± 600 |
| MSRLPVLLLLQLLVRPGLQAPMTQTTPLKTSWVNCSNMIDEIITHLKQPPLPLLDFNNLNGEDQDILMENNLRRPNLEAFNRAVKSLQNASAIESILKNLLPCLPLATAAPTRHPIHIKDGDWNEFRRKLTFYLKTLENAQAQQTTLSLAIF | 157 ± 160 | 139 ± 130 | 1350 ± 400 | 3050 ± 1200 | – | – | number [1, 4]: 219 ± 220; number [2, 4]: 2510 ± 1100 |
| MTDRQTDTAPSPSYHLLPGRRRTVDAAASRGQGPEPAPGGGVEGVGARGVALKLFVQLLGCSRFGGAVVRAGEAEPSGAARSASSGREEPQPEEGEEEEEKEEERGPQWRLGARKPGSWTGEAAVCADSAPAARAPQALARASGRGGRVARRGAEESGPPHSPSRRGSASRAGPGRASETMNFLLSWVHWSLALLLYLHHAKWSQAAPMAEGGGQNHHEVVKFMDVYQRSYCHPIETLVDIFQEYPDEIEYIFKPSCVPLMRCGGCCNDEGLECVPTEESNITMQIMRIKPHQGQHIGEMSFLQHNKCECRPKKDRARQEKKSVRGKGKGQKRKRKKSRYKSWSVPCGPCSERRKHLFVQDPQTCKCSCKNTDSRCKARQLELNERTCRCDKPRR | 93 ± 57 | – | 314 ± 230 | – | 106 ± 56 | 387 ± 360 | number [1, 11]: 95 ± 73; number [2, 11]: 294 ± 200 |
| MTILFLTMVISYFGCMKAAPMKEANIRGQGGLAYPGVRTHGTLESVNGPKAGSRGLTSLADTFEHVIEELLDEDQKVRPNEENNKDADLYTSRVMLSSQVPLEPPLLFLLEEYKNYLDAANMSMRVRRHSDPARRGELSVCDSISEWVTAADKKTAVDMSGGTVTVLEKVPVSKGQLKQYFYETKCNPMGYTKEGCRGIDKRHWNSQCRTTQSYVRALTMDSKKRIGWRFIRIDTSCVCTLTIKRGR | 100 ± 37 | 112 ± 44 | 242 ± 160 | 425 ± 300 | 128 ± 31 | 442 ± 370 | – |
| MTPPERLFLPRVCGTTLHLLLLGLLLVLLPGAQGLPGVGLTPSAAQTARQHPKMHLAHSTLKPAAHLIGDPSKQNSLLWRANTDRAFLQDGFSLSNNSLLVPTSGIYFVYSQVVFSGKAYSPKATSSPLYLAHEVQLFSSQYPFHVPLLSSQKMVYPGLQEPWLHSMYHGAAFQLTQGDQLSTHTDGIPHLVLSPSTVFFGAFAL | 63.3 ± 44 | – | 318 ± 260 | – | 14.6 ± 8.5 | 303 ± 130 | number [1, 7]: 25.3 ± 25; number [2, 7]: 326 ± 120 |
| MTVFLSFAFLAAILTHIGCSNQRRSPENSGRRYNRIQHGQCAYTFILPEHDGNCRESTTDQYNTNALQRDAPHVEPDFSSQKLQHLEHVMENYTQWLQKLENYIVENMKSEMAQIQQNAVQNHTATMLEIGTSLLSQTAEQTRKLTDVETQVLNQTSRLEIQLLENSLSTYKLEKQLLQQTNEILKIHEKNSLLEHKILEMEGKHKEELDTLKEEKENLQGLVTRQTYIIQELEKQLNRATTNNSVLQKQQLELMDTVHNLVNLCTKEGVLLKGGKREEEKPFRDCADVYQAGFNKSGIYTIYINNMPEPKKVFCNMDVNGGGWTVIQHREDGSLDFQRGWKEYKMGFGNPSGEYWLGNEFIFAITSQRQYMLRIELMDWEGNRAYSQYDRFHIGNEKQNYRLYLKGHTGTAGKQSSLILHGADFSTKDADNDNCMCKCALMLTGGWWFDACGPSNLNGMFYTAGQNHGKLNGIKWHYFKGPSYSLRSTTMMIRPLDF | 133 ± 60 | 135 ± 29 | 448 ± 320 | 560 ± 550 | – | – | number [1, 4]: 135 ± 22; number [2, 4]: 482 ± 360 |
| MVAGTRCLLALLLPQVLLGGAAGLVPELGRRKFAAASSGRPSSQPSDEVLSEFELRLLSMFGLKQRPTPSRDAVVPPYMLDLYRRHSGQPGSPAPDHRLERAASRANTVRSFHHEESLEELPETSGKTTRRFFFNLSSIPTEEFITSAELQVFREQMQDALGNNSSFHHRINIYEIIKPATANSKFPVTRLLDTRLVNQNASRWESFDVTPAVMRWTAQGHANHGFVVEVAHLEEKQGVSKRHVRISRSLHQDEHSWSQIRPLLVTFGHDGKGHPLHKREKRQAKHKQRKRLKSSCKRHPLYVDFSDVGWNDWIVAPPGYHAFYCHGECPFPLADHLNSTNHAIVQTLVNSVNSKIPKACCVPTELSAISMLYLDENEKVVLKNYQDMVVEGCGCR | 107 ± 57 | 92.2 ± 49 | 348 ± 260 | 426 ± 440 | – | – | number [1, 12]: 90 ± 48; number [2, 12]: 452 ± 390 |
| MVLAAPLLLGFLLLALELRPRGEAAEGPAAAAAAAAAAAAAGVGGERSSRPAPSVAPEPDGCPVCVWRQHSRELRLESIKSQILSKLRLKEAPNISREVVKQLLPKAPPLQQILDLHDFQGDALQPEDFLEEDEYHATTETVISMAQETDPAVQTDGSPLCCHFHFSPKVMFTKVLKAQLWVYLRPVPRPATVYLQILRLKPLTGEGTAGGGGGGRRHIRIRSLKIELHSRSGHWQSIDFKQVLHSWFRQPQSNWGIEINAFDPSGTDLAVTSLGPGAEGLHPFMELRVLENTKRSRRNLGLDCDEHSSESRCCRYPLTVDFEAFGWDWIIAPKRYKANYCSGQCEYMFMQKYPHTHLVQQANPRGSAGPCCTPTKMSPINMLYFNDKQQIIYGKIPGMVVDRCGCS | 69.1 ± 50 | 66.7 ± 41 | 326 ± 240 | 142 ± 120 | – | – | number [1, 12]: 69.8 ± 49; number [2, 12]: 174 ± 110 |

Given with tabs: entries from further up.
Sequence	number [1, 3]	number [1, 5]	number [2, 3]	number [2, 5]	number [1, 6]	number [2, 6]	further results
MTPPERLFLPRVCGTTLHLLLLGLLLVLLPGAQGLPGVGLTPSAAQTARQHPKMHLAHSTLKPAAHLIGDPSKQNSLLWRANTDRAFLQDGFSLSNNSLLVPTSGIYFVYSQVVFSGKAYSPKATSSPLYLAHEVQLFSSQYPFHVPLLSSQKMVYPGLQEPWLHSMYHGAAFQLTQGDQLSTHTDGIPHLVLSPSTVFFGAFAL	63.3 ± 44	–	318 ± 260	–	14.6 ± 8.5	303 ± 130	number [1, 7]: 25.3 ± 25; number [2, 7]: 326 ± 120
MTVFLSFAFLAAILTHIGCSNQRRSPENSGRRYNRIQHGQCAYTFILPEHDGNCRESTTDQYNTNALQRDAPHVEPDFSSQKLQHLEHVMENYTQWLQKLENYIVENMKSEMAQIQQNAVQNHTATMLEIGTSLLSQTAEQTRKLTDVETQVLNQTSRLEIQLLENSLSTYKLEKQLLQQTNEILKIHEKNSLLEHKILEMEGKHKEELDTLKEEKENLQGLVTRQTYIIQELEKQLNRATTNNSVLQKQQLELMDTVHNLVNLCTKEGVLLKGGKREEEKPFRDCADVYQAGFNKSGIYTIYINNMPEPKKVFCNMDVNGGGWTVIQHREDGSLDFQRGWKEYKMGFGNPSGEYWLGNEFIFAITSQRQYMLRIELMDWEGNRAYSQYDRFHIGNEKQNYRLYLKGHTGTAGKQSSLILHGADFSTKDADNDNCMCKCALMLTGGWWFDACGPSNLNGMFYTAGQNHGKLNGIKWHYFKGPSYSLRSTTMMIRPLDF	133 ± 60	135 ± 29	448 ± 320	560 ± 550	–	–	number [1, 4]: 135 ± 22; number [2, 4]: 482 ± 360
